Results taken from PubChem BioAssay AID504834 (National Center for Advancing Translational Sciences (NCATS), 2011).
The campaign covered roughly 320,000 compounds. About 22,000 (6.9%) were called active. The shares of active, inactive and inconclusive entries below differ from those in the screen. The call rests on the fitted dose curve; in most records, active means well fitted inhibition curve with a large enough effect; inconclusive means small, poorly fitted or top-dose-only effect, or another doubt; inactive means no such curve, though single readings can be large or run the other way. Potencies of inconclusive entries are doubtful fits and often do not repeat.

Assay: Primary qHTS for delayed death inhibitors of the malarial parasite plastid, 96 hour incubation
Settings: P. falciparum luciferase reporter growth; series mostly up to 28.7 µM
How it was run: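 P. falciparum expressing integrated firefly luciferase grown in erythrocytes (2% hematocrit, 0.05% parasitemia final) with compounds for 96 hours at 37 C, 5% CO2. Growth inhibition read as loss of luminescence after adding luciferase detection reagent.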
Potency means the concentration at half of the fitted maximal effect.

SMILES	Potency
Cc1ccc(NC(=O)Cc2ccccc2Cl)cc1S(=O)(=O)N(C)C	inconclusive: 13.1 µM [inhibitor, single point]
Brc1nnc2n1-c1ccccc1Sc1ccccc1-2	active: 8.28 µM
COc1ccc2cc(/C=N/O)c(Cl)nc2c1	inactive
Cc1cc2n(n1)C(c1c[nH]c3ccccc13)Nc1ccccc1-2 (stereo unspecified)	inactive
CN(C)CCNc1oc(-c2cccc(Cl)c2)nc1C#N	inactive
CN(CC(=O)Nc1ccc2c(c1)OCO2)S(=O)(=O)c1cccs1	inconclusive: 7.38 µM [inhibitor, partial curve, poor fit]
CCn1nc(C)cc1-c1nnc(Sc2ncc([N+](=O)[O-])s2)n1C	inactive
COc1cc(/C=C/C(=O)O)cc(S(=O)(=O)N2CCCc3ccccc32)c1OC	inconclusive: 10.4 µM [inhibitor, single point]
CCn1cc(S(=O)(=O)Nc2cc(F)ccc2C)cn1	inactive
O=C(CCNC(=O)c1ccccc1Cl)Nc1nc(-c2ccc(F)cc2)cs1	inconclusive: 13.1 µM [inhibitor, partial curve]
COc1cc([C@@H]2CC=C(C(=O)O)[C@H](c3cccc(Cl)c3)N2S(=O)(=O)c2ccc(C)cc2)cc(OC)c1OC	active: 13.1 µM
Cc1nnc2ccc(-c3cccc(NC(=O)c4ccco4)c3)nn12	inconclusive: 16.5 µM [inhibitor, single point]
COc1ccc(C(=O)c2c3ccc(C(F)(F)F)cc3[n+]([O-])n2CCCC(N)=O)cc1	inconclusive: 10.4 µM [inhibitor, single point]
O=C(NCCCn1ccnc1)c1cc(C2CC2)on1	active: 10.4 µM
CCOC(=O)C1CCN(C(=O)CSc2cc(=O)n(CC)c3ccccc23)CC1	active: 0.0033 µM
CC1(C)CC(=O)c2cc(O)ccc2O1	inconclusive: 20.8 µM [inhibitor, single point]
C(=N\Nc1nncc2ccccc12)/c1ccccn1	inconclusive: 0.37 µM [inhibitor, full curve]
COc1ccccc1CNC(=O)CCS(=O)(=O)c1cccs1	inactive
c1cc(-c2nnc3sc(C4CCCCC4)nn23)ccn1	inconclusive: 9.28 µM [inhibitor, partial curve]
CCOC(=O)C1=CC[C@]2(C)c3c(c4ccccc4n3C)C(=O)C1N2C	inconclusive: 11.7 µM [inhibitor, single point]
O=C(c1cn(-c2ccccc2)nc1-c1cccnc1)N1CCN(S(=O)(=O)c2ccccc2F)CC1	inconclusive: 18.5 µM [inhibitor, single point]
CCCCS(=O)(=O)/C=C/[C@H]1[C@H](S(=O)(=O)CCCC)[C@H]2C=C[C@@H]1C2	inconclusive: 10.4 µM [inhibitor, partial curve, poor fit]
Cc1nnc(SCC(=O)c2ccc(C(C)C)cc2)s1	inactive

SMILES	Potency
COc1ccc(NC(=O)CN(C)Cc2c(F)cccc2Cl)cc1S(=O)(=O)N1CCCCC1	inconclusive: 14.7 µM [inhibitor, single point]
Cc1c(CC(=O)N2CCN(C(=O)C3COc4ccccc4O3)CC2)c(=O)oc2c(O)c(O)ccc12 (stereo unspecified)	inconclusive: 14.7 µM [inhibitor, single point]
CCCCn1c(N)c(N(CC(C)C)C(=O)c2ccc(-c3ccc([N+](=O)[O-])cc3)o2)c(=O)[nH]c1=O	inconclusive: 18.5 µM [inhibitor, single point]
CC(C)(O[C@@H]1O[C@H](CO)[C@@H](O)[C@H](O)[C@H]1O)[C@H]1Cc2cc3ccc(=O)oc3cc2O1	inactive
CC([C@H](O)c1ccccc1)N(C)C (stereo partly specified)	inconclusive: 10.7 µM [inhibitor, partial curve, poor fit]
O=c1cc(N2CCc3ccccc3C2)[nH]c(=O)n1-c1ccc(Br)cc1	active: 7.38 µM
Cc1cc(C)nc(NC(=O)c2cc(-c3ccc(C)s3)nc3ccccc23)c1	inactive
COC(=O)c1c(C(=O)OC)c(-c2ccc(C(C)(C)C)cc2)n2c1CS(=O)C2 (stereo unspecified)	inconclusive: 18.5 µM [inhibitor, single point]
CCCC(=O)NC(Nc1ccc(S(=O)(=O)Nc2cc(C)on2)cc1)(C(=O)OCC)C(F)(F)F (stereo unspecified)	inconclusive: 0.0657 µM [inhibitor, full curve, poor fit]
Oc1ccc(CN2CCCCC2)nc1-c1ccccc1	inconclusive: 9.28 µM [inhibitor, partial curve, poor fit]
N#Cc1ccccc1NC(=O)CSc1nnc(-c2ccccc2O)n1-c1ccccc1	inconclusive: 18.5 µM [inhibitor, single point]
Cn1ncc(C#N)c1/N=C/N1CCCCCC1	inconclusive: 8.28 µM [inhibitor, partial curve, poor fit]
CN1CCN(CCNC(=O)c2cn(Cc3ccccc3F)nn2)CC1	inconclusive: 4.65 µM [inhibitor, partial curve]
CC/C(=N\NC(=O)CSCc1ccccc1Cl)c1ccc2c(c1)OCCO2	inconclusive: 5.86 µM [inhibitor, partial curve]
NS(=O)(=O)c1cc(-c2nn[nH]n2)c(NCc2cccs2)cc1Cl	active: 12 µM
Cc1ccc(-c2nc3cccnc3s2)cc1NS(=O)(=O)c1cccs1	inactive
CCOc1ccccc1NC(=O)CSc1nnc(-c2cnccn2)n1C	active: 1.85 µM
CS(=O)(=O)Nc1ccc(C(=O)Nc2ccccc2-c2ccccc2)cc1	active: 11.7 µM
S=C(NCc1ccccc1)N/N=C/c1cccs1	inconclusive: 14.7 µM [inhibitor, partial curve, poor fit]
CC(Cc1cccs1)NC(=O)c1cccc(Cl)c1 (stereo unspecified)	inactive
O=S(=O)(c1cnc(Cl)c(Br)c1)N1CCc2ccccc21	inconclusive: 0.415 µM [inhibitor, full curve, poor fit]
CCCCn1c(SCc2ncc(-c3ccccc3)o2)nc2cc(S(N)(=O)=O)ccc21	active: 14.7 µM
CC(/C=C/C=C/c1ccccc1)=N/NC(=O)C(O)c1ccccc1 (stereo unspecified)	inactive

3 of the compounds above, field by field:
CN(C)CCNc1oc(-c2cccc(Cl)c2)nc1C#N
  Potency: inactive
CN(CC(=O)Nc1ccc2c(c1)OCO2)S(=O)(=O)c1cccs1
  Potency: inconclusive: 7.38 µM [inhibitor, partial curve, poor fit]
CCn1nc(C)cc1-c1nnc(Sc2ncc([N+](=O)[O-])s2)n1C
  Potency: inactive
